Values of other authors as cited in patent US10918741B2, “PSMA-targeting imaging agents” (THE CLEVELAND CLINIC FOUNDATION, priority 2014, dated 2021).

System: malignant tumors
Conditions: 10 malignant tumors, intravenous ICG; cited from earlier work

CC1(C)C(/C=C/C=C/C=C/C=C2\N(CCCCS(=O)(=O)O)c3ccc4ccccc4c3C2(C)C)=[N+](CCCCS(=O)(=O)[O-])c2ccc3ccccc3c21 [ICG, indocyanine green]
malignant tumors hypofluorescent in comparison with the normal parenchyma: 70% | malignant tumors isofluorescent in comparison with the normal parenchyma: 30%
